Record: PubChem BioAssay AID1259308 (NCATS, 2017)
The deposit covers about 59,000 reagents; shown is a part drawn at random. About 1,510 of all reagents (2.6%) were called active. 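Calls use total luciferase alone and ignore viability, so some active siRNAs may act by altering cell number.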 The numbers tell different reagents against one gene apart. Further read-outs or replicates are left out here.

Purpose: 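Genes whose loss raises luciferase production in HEK293 cells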 (primary screen)
Cell system: human HEK293 embryonic kidney cells stably expressing firefly luciferase (HEK-CMV-Luc2-Hygro)
Knock-down reagent: single siRNA against human genes, 0.8 pmol siRNA per well
Time to read-out: 72 h
Detection: 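Luciferase light (ONE-Glo) measured on one replicate plate set and viability (CellTiter-Glo) on the other, scaled to a negative control siRNA, with robust z-scores and luciferase per cell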
Direction: total luciferase, z-score: higher = more reporter protein produced
Active means: 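Active when the median/MAD z-score for overall luciferase is greater than 3; a gene was taken forward for validation with new siRNAs if at least two of its three siRNAs passed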
Calls: active = raised luciferase; inactive = no rise

ISM1 (isthmin 1) #1 → total luciferase, z-score: 1.38; outcome: inactive
ISM1 (isthmin 1) #2 → total luciferase, z-score: 1.63; outcome: inactive
ISM1 (isthmin 1) #3 → total luciferase, z-score: 0.429; outcome: inactive
MTRF1L (mitochondrial translation release factor 1 like) #1 → total luciferase, z-score: 0.178; outcome: inactive
MTRF1L (mitochondrial translation release factor 1 like) #2 → total luciferase, z-score: 0.518; outcome: inactive
MTRF1L (mitochondrial translation release factor 1 like) #3 → total luciferase, z-score: 0.191; outcome: inactive
HEATR3 (HEAT repeat containing 3) #1 → total luciferase, z-score: 1.72; outcome: inactive
HEATR3 (HEAT repeat containing 3) #2 → total luciferase, z-score: -0.346; outcome: inactive
HEATR3 (HEAT repeat containing 3) #3 → total luciferase, z-score: -1.65; outcome: inactive
ESRRG (estrogen related receptor gamma) #1 → total luciferase, z-score: 1.66; outcome: inactive
ESRRG (estrogen related receptor gamma) #2 → total luciferase, z-score: 1.87; outcome: inactive
ESRRG (estrogen related receptor gamma) #3 → total luciferase, z-score: -0.659; outcome: inactive
ENTPD4 (ectonucleoside triphosphate diphosphohydrolase 4) #1 → total luciferase, z-score: -0.992; outcome: inactive
ENTPD4 (ectonucleoside triphosphate diphosphohydrolase 4) #2 → total luciferase, z-score: 4.07; outcome: active
ENTPD4 (ectonucleoside triphosphate diphosphohydrolase 4) #3 → total luciferase, z-score: 0.049; outcome: inactive
LCE1B (late cornified envelope 1B) #1 → total luciferase, z-score: 0.142; outcome: inactive
LCE1B (late cornified envelope 1B) #2 → total luciferase, z-score: 4.43; outcome: active
LCE1B (late cornified envelope 1B) #3 → total luciferase, z-score: -0.16; outcome: inactive
FAM230J (family with sequence similarity 230 member J) #1 → total luciferase, z-score: -0.727; outcome: inactive
FAM230J (family with sequence similarity 230 member J) #2 → total luciferase, z-score: -0.882; outcome: inactive
FAM230J (family with sequence similarity 230 member J) #3 → total luciferase, z-score: 1.5; outcome: inactive
FAM230J (family with sequence similarity 230 member J) #4 → total luciferase, z-score: 1.66; outcome: inactive
FAM230J (family with sequence similarity 230 member J) #5 → total luciferase, z-score: -0.556; outcome: inactive
FAM230J (family with sequence similarity 230 member J) #6 → total luciferase, z-score: 0.469; outcome: inactive
GAMT (guanidinoacetate N-methyltransferase) #1 → total luciferase, z-score: 0.831; outcome: inactive
GAMT (guanidinoacetate N-methyltransferase) #2 → total luciferase, z-score: 2.02; outcome: inactive
GAMT (guanidinoacetate N-methyltransferase) #3 → total luciferase, z-score: 0.413; outcome: inactive
VPS51 (VPS51 subunit of GARP complex) #1 → total luciferase, z-score: 1.03; outcome: inactive
VPS51 (VPS51 subunit of GARP complex) #2 → total luciferase, z-score: -1.23; outcome: inactive
VPS51 (VPS51 subunit of GARP complex) #3 → total luciferase, z-score: 0.015; outcome: inactive
COL18A1 (collagen type XVIII alpha 1 chain) #1 → total luciferase, z-score: -0.0478; outcome: inactive
COL18A1 (collagen type XVIII alpha 1 chain) #2 → total luciferase, z-score: -1.13; outcome: inactive
COL18A1 (collagen type XVIII alpha 1 chain) #3 → total luciferase, z-score: -0.274; outcome: inactive
LRRC19 (leucine rich repeat containing 19) #1 → total luciferase, z-score: -0.29; outcome: inactive
LRRC19 (leucine rich repeat containing 19) #2 → total luciferase, z-score: 1.74; outcome: inactive
LRRC19 (leucine rich repeat containing 19) #3 → total luciferase, z-score: 0.288; outcome: inactive
DEFB132 (defensin beta 132) #1 → total luciferase, z-score: 0.15; outcome: inactive
DEFB132 (defensin beta 132) #2 → total luciferase, z-score: -0.678; outcome: inactive
DEFB132 (defensin beta 132) #3 → total luciferase, z-score: -0.82; outcome: inactive
UBR1 (ubiquitin protein ligase E3 component n-recognin 1) #1 → total luciferase, z-score: -0.853; outcome: inactive
UBR1 (ubiquitin protein ligase E3 component n-recognin 1) #2 → total luciferase, z-score: -0.0955; outcome: inactive
UBR1 (ubiquitin protein ligase E3 component n-recognin 1) #3 → total luciferase, z-score: -0.776; outcome: inactive

Ordered by “total luciferase, z-score” (high to low): some entries from above.
ISM1 (isthmin 1) #2 → total luciferase, z-score: 1.63; outcome: inactive
ISM1 (isthmin 1) #3 → total luciferase, z-score: 0.429; outcome: inactive
